Taken from: PubChem BioAssay AID1159597 (NIAID, 2016)
The deposit covers 756 reagents; shown is a random part of them. 140 of them (19%) were called active. 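Calls mark clear shifts in either direction, lowered or raised; calls are per siRNA, gene-level medians over six siRNAs not deposited.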 Reagents against one gene are numbered here. Not given: the amount of reagent.

- Assay: 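Role of canonical TLR signalling genes in the human macrophage LPS response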
- Cells: human THP-1 B5 reporter clone (monocytic leukaemia line), PMA-differentiated to macrophage-like cells
- Reagents: single siRNA against human genes
- Time to read-out: LPS for 4 h before read-out; assayed 48 to 72 h after siRNA transfection
- Conditions: LPS (Salmonella minnesota R595) for 4 h; concentration not given
- Measurement: 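After 4 h LPS, firefly TNF promoter luciferase over renilla, as a plate median/MAD robust z-score averaged across replicates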
- Reading the numbers: TNF reporter z-score: higher = stronger TNF promoter activity after LPS
- Active means: In these data the active calls have TNF reporter z-score, replicate mean at about -1.5 or lower, or at about 1.53 or higher
- Meaning of the calls: active = clear shift in reporter, either direction; inactive = little shift in reporter

The opening 12 entries as a preview:
target gene,reagent no.,"TNF reporter z-score, replicate mean",outcome
IRAK4 (interleukin 1 receptor associated kinase 4),1,-0.082,inactive
IRAK4 (interleukin 1 receptor associated kinase 4),2,1.02,inactive
IRAK4 (interleukin 1 receptor associated kinase 4),3,0.622,inactive
IRAK4 (interleukin 1 receptor associated kinase 4),4,-0.553,inactive
IRAK4 (interleukin 1 receptor associated kinase 4),5,-0.37,inactive
IRAK4 (interleukin 1 receptor associated kinase 4),6,0.0448,inactive
IFNB1 (interferon beta 1),1,-1.15,inactive
IFNB1 (interferon beta 1),2,-1.54,active
IFNB1 (interferon beta 1),3,-0.571,inactive
IFNB1 (interferon beta 1),4,-0.557,inactive
IFNB1 (interferon beta 1),5,-0.615,inactive
IFNB1 (interferon beta 1),6,-2.09,active

Results, from the start:
target gene,reagent no.,"TNF reporter z-score, replicate mean",outcome
IRAK4 (interleukin 1 receptor associated kinase 4),1,-0.082,inactive
IRAK4 (interleukin 1 receptor associated kinase 4),2,1.02,inactive
IRAK4 (interleukin 1 receptor associated kinase 4),3,0.622,inactive
IRAK4 (interleukin 1 receptor associated kinase 4),4,-0.553,inactive
IRAK4 (interleukin 1 receptor associated kinase 4),5,-0.37,inactive
IRAK4 (interleukin 1 receptor associated kinase 4),6,0.0448,inactive
IFNB1 (interferon beta 1),1,-1.15,inactive
IFNB1 (interferon beta 1),2,-1.54,active
IFNB1 (interferon beta 1),3,-0.571,inactive
IFNB1 (interferon beta 1),4,-0.557,inactive
IFNB1 (interferon beta 1),5,-0.615,inactive
IFNB1 (interferon beta 1),6,-2.09,active
IRF3 (interferon regulatory factor 3),1,0.816,inactive
IRF3 (interferon regulatory factor 3),2,-1.4,inactive
IRF3 (interferon regulatory factor 3),3,-1.38,inactive
IRF3 (interferon regulatory factor 3),4,1.96,active
IRF3 (interferon regulatory factor 3),5,-2.98,active
IRF3 (interferon regulatory factor 3),6,-1.13,inactive
EP300 (EP300 lysine acetyltransferase),1,-0.695,inactive
EP300 (EP300 lysine acetyltransferase),2,0.00515,inactive
EP300 (EP300 lysine acetyltransferase),3,0.609,inactive
EP300 (EP300 lysine acetyltransferase),4,-0.273,inactive
EP300 (EP300 lysine acetyltransferase),5,0.404,inactive
EP300 (EP300 lysine acetyltransferase),6,0.287,inactive
IRF9 (interferon regulatory factor 9),1,-1.17,inactive
IRF9 (interferon regulatory factor 9),2,-1.25,inactive
IRF9 (interferon regulatory factor 9),3,-0.209,inactive
IRF9 (interferon regulatory factor 9),4,-1.63,active
IRF9 (interferon regulatory factor 9),5,-0.789,inactive
IRF9 (interferon regulatory factor 9),6,-0.798,inactive
MAPK13 (mitogen-activated protein kinase 13),1,-1.27,inactive
MAPK13 (mitogen-activated protein kinase 13),2,-0.65,inactive
MAPK13 (mitogen-activated protein kinase 13),3,-0.84,inactive
MAPK13 (mitogen-activated protein kinase 13),4,-2.05,active
MAPK13 (mitogen-activated protein kinase 13),5,-0.527,inactive
MAPK13 (mitogen-activated protein kinase 13),6,0.0182,inactive
IKBKG,1,-1.91,active
IKBKG,2,-2.95,active
IKBKG,3,0.14,inactive
IKBKG,4,-0.832,inactive
IKBKG,5,0.517,inactive
IKBKG,6,-0.28,inactive
"ETS1 (ETS proto-oncogene 1, transcription factor)",1,-0.124,inactive
"ETS1 (ETS proto-oncogene 1, transcription factor)",2,-1.74,active
"ETS1 (ETS proto-oncogene 1, transcription factor)",3,-0.415,inactive
"ETS1 (ETS proto-oncogene 1, transcription factor)",4,-0.544,inactive
"ETS1 (ETS proto-oncogene 1, transcription factor)",5,0.946,inactive
"ETS1 (ETS proto-oncogene 1, transcription factor)",6,-1.32,inactive
"RELA (RELA proto-oncogene, NF-kB subunit)",1,-1.78,active
"RELA (RELA proto-oncogene, NF-kB subunit)",2,-0.873,inactive
"RELA (RELA proto-oncogene, NF-kB subunit)",3,-1.1,inactive
"RELA (RELA proto-oncogene, NF-kB subunit)",4,-1.31,inactive
"RELA (RELA proto-oncogene, NF-kB subunit)",5,-0.454,inactive
"RELA (RELA proto-oncogene, NF-kB subunit)",6,-2.6,active
IFNAR1 (interferon alpha and beta receptor subunit 1),1,-1.91,active
IFNAR1 (interferon alpha and beta receptor subunit 1),2,-1.75,active
IFNAR1 (interferon alpha and beta receptor subunit 1),3,0.0474,inactive
IFNAR1 (interferon alpha and beta receptor subunit 1),4,-2.13,active
IFNAR1 (interferon alpha and beta receptor subunit 1),5,-0.353,inactive
IFNAR1 (interferon alpha and beta receptor subunit 1),6,-0.34,inactive
TLR8 (toll like receptor 8),1,-0.467,inactive
TLR8 (toll like receptor 8),2,1.03,inactive
TLR8 (toll like receptor 8),3,-0.289,inactive
TLR8 (toll like receptor 8),4,-0.929,inactive
TLR8 (toll like receptor 8),5,-0.702,inactive
TLR8 (toll like receptor 8),6,-0.106,inactive
PIK3R2 (phosphoinositide-3-kinase regulatory subunit 2),1,-0.645,inactive
PIK3R2 (phosphoinositide-3-kinase regulatory subunit 2),2,-1.32,inactive
PIK3R2 (phosphoinositide-3-kinase regulatory subunit 2),3,0.223,inactive
PIK3R2 (phosphoinositide-3-kinase regulatory subunit 2),4,-1.25,inactive
PIK3R2 (phosphoinositide-3-kinase regulatory subunit 2),5,-0.309,inactive
PIK3R2 (phosphoinositide-3-kinase regulatory subunit 2),6,-0.43,inactive
NFKBIE (NFKB inhibitor epsilon),1,-0.833,inactive
NFKBIE (NFKB inhibitor epsilon),2,-1.33,inactive
NFKBIE (NFKB inhibitor epsilon),3,-1.37,inactive
NFKBIE (NFKB inhibitor epsilon),4,-2.1,active
NFKBIE (NFKB inhibitor epsilon),5,-2.11,active
NFKBIE (NFKB inhibitor epsilon),6,-1.89,active
TICAM1 (TIR domain containing adaptor molecule 1),1,-1.73,active
TICAM1 (TIR domain containing adaptor molecule 1),2,-1.82,active
TICAM1 (TIR domain containing adaptor molecule 1),3,-1.98,active
TICAM1 (TIR domain containing adaptor molecule 1),4,-2.71,active
TICAM1 (TIR domain containing adaptor molecule 1),5,-1.43,inactive
TICAM1 (TIR domain containing adaptor molecule 1),6,-1.01,inactive
NFKB2 (nuclear factor kappa B subunit 2),1,-0.654,inactive
NFKB2 (nuclear factor kappa B subunit 2),2,-0.32,inactive
NFKB2 (nuclear factor kappa B subunit 2),3,1.71,active
NFKB2 (nuclear factor kappa B subunit 2),4,-0.348,inactive
NFKB2 (nuclear factor kappa B subunit 2),5,-2.6,active
NFKB2 (nuclear factor kappa B subunit 2),6,-1.33,inactive
IRAK1 (interleukin 1 receptor associated kinase 1),1,-0.606,inactive
IRAK1 (interleukin 1 receptor associated kinase 1),2,-3.26,active
IRAK1 (interleukin 1 receptor associated kinase 1),3,-1.72,active
IRAK1 (interleukin 1 receptor associated kinase 1),4,-0.964,inactive
IRAK1 (interleukin 1 receptor associated kinase 1),5,-1.42,inactive
IRAK1 (interleukin 1 receptor associated kinase 1),6,-2.12,active
BTK (Bruton tyrosine kinase),1,-0.262,inactive
BTK (Bruton tyrosine kinase),2,0.0985,inactive
BTK (Bruton tyrosine kinase),3,0.424,inactive
BTK (Bruton tyrosine kinase),4,-0.699,inactive
BTK (Bruton tyrosine kinase),5,1.17,inactive
BTK (Bruton tyrosine kinase),6,0.451,inactive
DUSP2 (dual specificity phosphatase 2),1,-0.521,inactive
DUSP2 (dual specificity phosphatase 2),2,0.0288,inactive
DUSP2 (dual specificity phosphatase 2),3,-3.52,active
DUSP2 (dual specificity phosphatase 2),4,-0.115,inactive
DUSP2 (dual specificity phosphatase 2),5,-0.196,inactive
DUSP2 (dual specificity phosphatase 2),6,-0.276,inactive
MAP2K4 (mitogen-activated protein kinase kinase 4),1,-0.467,inactive
MAP2K4 (mitogen-activated protein kinase kinase 4),2,-0.808,inactive
MAP2K4 (mitogen-activated protein kinase kinase 4),3,0.219,inactive
MAP2K4 (mitogen-activated protein kinase kinase 4),4,0.459,inactive
MAP2K4 (mitogen-activated protein kinase kinase 4),5,0.203,inactive
MAP2K4 (mitogen-activated protein kinase kinase 4),6,-0.334,inactive
